Experimental data as given in publication PMC12184535.
Results are given in words; binding and its absence hold for the method and conditions named. In cells and extracts the contact can be indirect. Some results given as binding are weak or reduced against the parent protein; the word gives no strength. Where a sequence is shown, tags or fusion partners need not be part of it.

Sequences of proteins named here, by UniProt entry; tags and fusion partners are left off.
UniProt Q04690: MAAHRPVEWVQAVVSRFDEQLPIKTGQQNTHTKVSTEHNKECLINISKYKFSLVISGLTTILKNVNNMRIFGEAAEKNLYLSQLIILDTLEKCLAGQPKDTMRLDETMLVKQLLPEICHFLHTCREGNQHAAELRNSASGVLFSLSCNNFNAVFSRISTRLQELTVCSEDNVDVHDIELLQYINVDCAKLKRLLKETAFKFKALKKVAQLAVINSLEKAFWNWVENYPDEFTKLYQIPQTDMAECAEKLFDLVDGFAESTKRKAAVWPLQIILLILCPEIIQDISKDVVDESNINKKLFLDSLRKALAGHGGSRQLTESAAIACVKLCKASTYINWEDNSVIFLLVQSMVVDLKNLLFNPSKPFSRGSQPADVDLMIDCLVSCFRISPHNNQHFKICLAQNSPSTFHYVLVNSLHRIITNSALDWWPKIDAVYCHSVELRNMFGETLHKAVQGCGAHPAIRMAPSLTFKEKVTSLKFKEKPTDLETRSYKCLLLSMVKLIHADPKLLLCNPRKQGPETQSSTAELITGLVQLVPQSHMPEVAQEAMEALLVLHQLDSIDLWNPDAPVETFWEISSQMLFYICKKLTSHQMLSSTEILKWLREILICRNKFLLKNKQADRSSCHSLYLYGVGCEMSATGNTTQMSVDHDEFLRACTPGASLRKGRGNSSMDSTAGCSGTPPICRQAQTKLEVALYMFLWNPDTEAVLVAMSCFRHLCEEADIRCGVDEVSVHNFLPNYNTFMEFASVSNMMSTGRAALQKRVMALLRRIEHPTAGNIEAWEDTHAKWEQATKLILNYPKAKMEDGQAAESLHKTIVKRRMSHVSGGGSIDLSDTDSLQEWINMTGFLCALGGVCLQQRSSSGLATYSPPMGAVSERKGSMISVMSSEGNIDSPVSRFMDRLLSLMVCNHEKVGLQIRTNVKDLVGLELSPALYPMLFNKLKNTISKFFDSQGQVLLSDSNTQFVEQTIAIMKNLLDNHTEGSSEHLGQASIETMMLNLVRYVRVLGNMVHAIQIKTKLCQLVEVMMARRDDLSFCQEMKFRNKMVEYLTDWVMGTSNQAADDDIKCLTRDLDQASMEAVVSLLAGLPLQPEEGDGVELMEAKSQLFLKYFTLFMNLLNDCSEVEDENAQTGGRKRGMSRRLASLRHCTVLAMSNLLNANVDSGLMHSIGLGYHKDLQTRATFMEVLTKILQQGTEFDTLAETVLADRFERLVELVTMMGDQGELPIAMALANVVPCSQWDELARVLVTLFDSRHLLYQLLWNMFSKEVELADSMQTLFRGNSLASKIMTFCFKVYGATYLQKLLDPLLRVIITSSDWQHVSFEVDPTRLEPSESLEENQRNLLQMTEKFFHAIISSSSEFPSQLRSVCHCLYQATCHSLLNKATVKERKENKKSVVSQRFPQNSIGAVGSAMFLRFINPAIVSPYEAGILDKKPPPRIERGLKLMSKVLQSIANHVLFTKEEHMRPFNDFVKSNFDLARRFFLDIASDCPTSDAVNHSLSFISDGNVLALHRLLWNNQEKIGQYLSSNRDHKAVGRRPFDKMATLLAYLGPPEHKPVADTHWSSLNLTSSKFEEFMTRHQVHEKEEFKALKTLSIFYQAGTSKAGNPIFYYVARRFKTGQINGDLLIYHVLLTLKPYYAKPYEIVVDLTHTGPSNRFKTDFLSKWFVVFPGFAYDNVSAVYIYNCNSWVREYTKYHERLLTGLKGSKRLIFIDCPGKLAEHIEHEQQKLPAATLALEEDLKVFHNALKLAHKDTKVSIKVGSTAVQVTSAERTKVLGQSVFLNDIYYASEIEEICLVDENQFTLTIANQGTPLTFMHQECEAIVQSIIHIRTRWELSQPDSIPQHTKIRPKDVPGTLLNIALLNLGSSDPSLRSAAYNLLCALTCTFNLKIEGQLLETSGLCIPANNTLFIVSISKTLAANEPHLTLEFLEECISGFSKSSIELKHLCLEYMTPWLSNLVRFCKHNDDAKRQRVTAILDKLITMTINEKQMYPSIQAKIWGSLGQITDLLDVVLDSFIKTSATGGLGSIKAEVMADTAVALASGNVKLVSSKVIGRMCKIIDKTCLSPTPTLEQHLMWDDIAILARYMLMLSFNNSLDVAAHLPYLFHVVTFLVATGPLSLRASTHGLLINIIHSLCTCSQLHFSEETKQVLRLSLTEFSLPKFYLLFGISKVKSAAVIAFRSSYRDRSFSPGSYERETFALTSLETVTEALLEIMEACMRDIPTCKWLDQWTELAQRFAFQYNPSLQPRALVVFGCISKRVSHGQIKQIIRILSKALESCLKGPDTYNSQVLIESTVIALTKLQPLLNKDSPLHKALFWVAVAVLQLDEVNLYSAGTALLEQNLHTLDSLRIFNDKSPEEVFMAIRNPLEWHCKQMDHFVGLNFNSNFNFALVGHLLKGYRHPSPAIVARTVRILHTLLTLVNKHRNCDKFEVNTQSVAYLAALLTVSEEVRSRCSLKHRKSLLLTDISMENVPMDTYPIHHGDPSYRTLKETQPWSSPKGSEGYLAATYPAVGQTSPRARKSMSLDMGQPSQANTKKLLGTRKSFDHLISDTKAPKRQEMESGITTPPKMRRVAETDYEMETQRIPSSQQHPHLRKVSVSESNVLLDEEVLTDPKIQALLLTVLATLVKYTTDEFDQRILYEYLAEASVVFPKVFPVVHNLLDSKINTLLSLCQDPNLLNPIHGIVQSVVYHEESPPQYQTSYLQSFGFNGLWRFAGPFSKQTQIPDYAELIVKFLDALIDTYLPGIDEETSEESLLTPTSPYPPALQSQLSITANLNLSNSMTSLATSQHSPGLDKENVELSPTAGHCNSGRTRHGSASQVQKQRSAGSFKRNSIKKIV

Target: T1, glucose transporter-1 (GLUT1) (mouse (endogenous in bone marrow-derived macrophages)) (UniProt P17809)
T1 sequence: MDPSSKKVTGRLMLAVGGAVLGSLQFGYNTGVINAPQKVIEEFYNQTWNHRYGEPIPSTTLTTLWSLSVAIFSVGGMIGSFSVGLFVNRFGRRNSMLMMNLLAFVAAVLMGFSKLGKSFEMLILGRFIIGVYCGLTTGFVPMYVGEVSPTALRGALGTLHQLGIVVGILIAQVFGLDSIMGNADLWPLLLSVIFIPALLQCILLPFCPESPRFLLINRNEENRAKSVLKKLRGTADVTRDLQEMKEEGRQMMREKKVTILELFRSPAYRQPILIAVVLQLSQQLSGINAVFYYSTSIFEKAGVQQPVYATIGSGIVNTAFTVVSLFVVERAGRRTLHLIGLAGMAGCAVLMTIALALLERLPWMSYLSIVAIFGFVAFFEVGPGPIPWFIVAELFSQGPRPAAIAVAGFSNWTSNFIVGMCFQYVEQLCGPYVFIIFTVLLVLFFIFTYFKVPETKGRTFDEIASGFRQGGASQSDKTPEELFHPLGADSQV
Assay: co-IP; anti-GLUT1 antibody (CST 12939) on Dynabeads incubated with lysates (800 ug protein, RIPA buffer) of M-CSF, LPS/IFNγ- or IL-4-polarized bone marrow-derived macrophages of Nf1^f/f mice overnight at 4°C; immune complex blotted with anti-neurofibromin antibody

binding: binds
Substance: neurofibromin (from UniProt Q04690 1-2841)
